Measured values taken from publication doi:10.1101/2021.08.06.455383.
No constants are given. Whether binding was seen depends on the method and setting. Binding seen in cells or lysates may run through a third protein. Some entries that bind do so weakly or less than the wild type. Sequences can lack the tags named with a protein.

By UniProt entry, the sequences of proteins in these tests, tags left out.
UniProt P62258, whole entry: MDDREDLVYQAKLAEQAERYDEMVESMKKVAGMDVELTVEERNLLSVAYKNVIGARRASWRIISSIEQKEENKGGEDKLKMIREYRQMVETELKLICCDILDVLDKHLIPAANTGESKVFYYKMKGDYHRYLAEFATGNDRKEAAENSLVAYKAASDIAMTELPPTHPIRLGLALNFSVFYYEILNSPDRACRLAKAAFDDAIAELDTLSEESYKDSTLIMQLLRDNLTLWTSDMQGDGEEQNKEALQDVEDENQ

Key:
[1] = molecular target: T1, HA-tagged iRhom2 wild type, in iRhom1/2 DKO HEK293T cells (UniProt Q6PJF5); assay: co-IP
T1 sequence: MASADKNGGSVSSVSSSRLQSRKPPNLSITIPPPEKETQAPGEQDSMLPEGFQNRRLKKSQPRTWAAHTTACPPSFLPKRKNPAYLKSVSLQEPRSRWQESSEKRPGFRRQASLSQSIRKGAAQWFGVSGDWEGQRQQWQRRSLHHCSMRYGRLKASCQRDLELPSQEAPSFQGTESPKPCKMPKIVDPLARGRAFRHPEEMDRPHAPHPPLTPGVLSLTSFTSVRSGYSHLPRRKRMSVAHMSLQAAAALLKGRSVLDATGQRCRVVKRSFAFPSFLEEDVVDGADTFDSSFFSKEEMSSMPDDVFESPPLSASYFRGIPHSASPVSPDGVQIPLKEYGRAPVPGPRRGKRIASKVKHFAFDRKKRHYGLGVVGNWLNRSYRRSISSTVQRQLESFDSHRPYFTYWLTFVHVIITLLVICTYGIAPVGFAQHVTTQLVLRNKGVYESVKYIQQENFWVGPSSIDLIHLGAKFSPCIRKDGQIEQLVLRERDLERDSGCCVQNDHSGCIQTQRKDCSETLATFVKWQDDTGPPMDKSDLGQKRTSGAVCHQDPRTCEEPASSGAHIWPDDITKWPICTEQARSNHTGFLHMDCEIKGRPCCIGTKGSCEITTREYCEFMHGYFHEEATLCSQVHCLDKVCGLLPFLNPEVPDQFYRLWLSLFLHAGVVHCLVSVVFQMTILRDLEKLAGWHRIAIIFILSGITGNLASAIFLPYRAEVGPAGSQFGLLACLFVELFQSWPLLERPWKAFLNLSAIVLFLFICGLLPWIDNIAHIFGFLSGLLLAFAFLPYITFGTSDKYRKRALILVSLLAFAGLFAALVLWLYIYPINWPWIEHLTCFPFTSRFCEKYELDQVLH

[2] = molecular target: T2, HA-tagged iRhom2 wild type, in iRhom1/2 DKO A549 cells (UniProt Q6PJF5); assay: co-IP
T2 sequence: T1 sequence

**Q.** “14-3-3 epsilon, endogenous in HEK293T cells (from UniProt P62258 1-255)” was tested. Which binding [1] did it give?
**A.** binds

**Q.** “14-3-3 epsilon, endogenous in A549 cells (from UniProt P62258 1-255)” was tested. Which binding [2] did it give?
**A.** binds
